By UniProt entry, the sequences of proteins in these tests, tags left out.
UniProt P39812: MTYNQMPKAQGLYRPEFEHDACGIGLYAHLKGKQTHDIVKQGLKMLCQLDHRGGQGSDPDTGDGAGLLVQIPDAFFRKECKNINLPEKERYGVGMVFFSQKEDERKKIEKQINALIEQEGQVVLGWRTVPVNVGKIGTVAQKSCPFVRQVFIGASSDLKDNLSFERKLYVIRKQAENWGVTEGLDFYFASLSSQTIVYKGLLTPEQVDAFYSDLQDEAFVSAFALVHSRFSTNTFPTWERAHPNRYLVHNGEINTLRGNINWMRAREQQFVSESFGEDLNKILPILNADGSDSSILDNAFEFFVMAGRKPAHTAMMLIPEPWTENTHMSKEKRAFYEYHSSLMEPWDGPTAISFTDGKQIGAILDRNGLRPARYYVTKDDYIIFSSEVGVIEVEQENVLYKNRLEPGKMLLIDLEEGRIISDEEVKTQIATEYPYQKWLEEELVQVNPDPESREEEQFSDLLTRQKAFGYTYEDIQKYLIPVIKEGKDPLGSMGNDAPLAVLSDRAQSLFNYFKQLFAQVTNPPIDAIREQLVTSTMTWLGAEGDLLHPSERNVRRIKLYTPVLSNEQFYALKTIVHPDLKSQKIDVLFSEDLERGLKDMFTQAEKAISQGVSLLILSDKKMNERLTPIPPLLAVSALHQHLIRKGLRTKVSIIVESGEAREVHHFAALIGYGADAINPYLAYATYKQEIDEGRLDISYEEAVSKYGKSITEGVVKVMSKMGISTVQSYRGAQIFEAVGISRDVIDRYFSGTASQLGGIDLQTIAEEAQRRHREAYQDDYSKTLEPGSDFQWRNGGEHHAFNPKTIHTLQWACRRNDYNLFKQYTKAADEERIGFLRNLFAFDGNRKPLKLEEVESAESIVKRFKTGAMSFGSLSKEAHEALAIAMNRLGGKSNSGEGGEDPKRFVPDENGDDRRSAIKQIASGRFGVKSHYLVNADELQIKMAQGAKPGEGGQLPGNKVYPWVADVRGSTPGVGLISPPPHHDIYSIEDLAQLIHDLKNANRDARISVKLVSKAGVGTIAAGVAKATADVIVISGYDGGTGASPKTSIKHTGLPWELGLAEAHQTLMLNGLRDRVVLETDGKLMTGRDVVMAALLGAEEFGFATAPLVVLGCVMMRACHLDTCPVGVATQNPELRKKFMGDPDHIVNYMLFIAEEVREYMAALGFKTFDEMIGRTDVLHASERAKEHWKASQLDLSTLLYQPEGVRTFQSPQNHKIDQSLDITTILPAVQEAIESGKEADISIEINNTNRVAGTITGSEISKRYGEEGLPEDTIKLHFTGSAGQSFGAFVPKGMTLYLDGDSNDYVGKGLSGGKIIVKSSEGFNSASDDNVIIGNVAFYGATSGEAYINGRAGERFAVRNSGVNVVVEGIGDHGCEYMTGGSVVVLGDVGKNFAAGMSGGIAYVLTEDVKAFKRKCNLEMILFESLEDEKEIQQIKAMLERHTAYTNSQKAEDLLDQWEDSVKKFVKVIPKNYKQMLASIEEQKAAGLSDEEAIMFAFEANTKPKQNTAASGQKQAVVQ

In paper PMC5569456:

T1: C-terminal SPA-tagged GlnR protein (GlnR^SPA) (Bacillus subtilis) (UniProt P37582)
T1 sequence: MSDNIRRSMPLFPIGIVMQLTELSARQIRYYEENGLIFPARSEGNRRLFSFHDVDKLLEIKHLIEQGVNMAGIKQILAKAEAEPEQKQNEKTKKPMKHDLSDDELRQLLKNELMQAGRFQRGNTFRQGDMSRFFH

T2: PerR^SPA protein (Bacillus subtilis) (UniProt P71086)
T2 sequence: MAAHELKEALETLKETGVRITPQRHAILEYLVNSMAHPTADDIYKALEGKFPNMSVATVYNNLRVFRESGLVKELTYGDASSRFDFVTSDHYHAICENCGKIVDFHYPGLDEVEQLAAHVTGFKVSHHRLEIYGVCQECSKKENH

T3: C-terminal SPA-tagged GlnR protein (GlnR^SPA) (Bacillus subtilis), P37582
T3 chain: T1 sequence

B1: TnrA (protein, UniProt Q45666 1-110)
chain: MTTEDHSYKDKKVISIGIVSELTGLSVRQIRYYEERKLIYPQRSSRGTRKYSFADVERLMDIANKREDGVQTAEILKDMRKKEQMLKNDPQVRKKMLEGQLNAHFRYKNR
B2: GlnR (protein, UniProt P37582 1-135)
chain: T1 sequence
B3: glutamine synthetase (GS), P12425 1-444 (enzyme)
chain: MAKYTREDIEKLVKEENVKYIRLQFTDILGTIKNVEIPVSQLGKALDNKVMFDGSSIEGFVRIEESDMYLYPDLNTFVIFPWTAEKGKVARFICDIYNPDGTPFEGDPRNNLKRILKEMEDLGFSDFNLGPEPEFFLFKLDEKGEPTLELNDKGGYFDLAPTDLGENCRRDIVLELEEMGFEIEASHHEVAPGQHEIDFKYAGAVRSCDDIQTFKLVVKTIARKHGLHATFMPKPLFGVNGSGMHCNLSLFKNGVNAFFDENADLQLSETAKHFIAGIVKHATSFTAVTNPTVNSYKRLVPGYEAPCYVAWSAQNRSPLIRIPASRGISTRVEVRSVDPAANPYLALSVLLAAGLDGIKNKLEAPAPIDRNIYVMSKEERMENGIVDLPATLAEALEEFKSNEVMVKALGEHLFEHFIEAKEIEWDMFRTQVHPWEREQYMSQY

How the values were obtained:
Assay in all cases: affinity purification with mass spectrometry; SPA-tag tandem affinity purification from B. subtilis cells grown in LB to exponential phase; cells resuspended in 10 mM Tris-Cl pH 8.0, 150 mM NaCl, lysozyme, Benzonase; eluted partners quantified by LC-MS/MS (PAI), 3 independent purifications; controls: no-SPA strain and PerR-SPA
[1] = target: T1, C-terminal SPA-tagged GlnR protein (GlnR^SPA) (Bacillus subtilis)
[2] = target: T2, PerR^SPA protein (Bacillus subtilis)
[3] = target: T3, C-terminal SPA-tagged GlnR protein …; settings: remark: other sources report otherwise

Molecule | binding [1] | binding [2] | binding [3]
GltA (glutamate synthase) (from UniProt P39812 1-1520) | binds | no binding | 
B1 | binds | no binding | 
B2 |  | no binding | 
B3 |  |  | no binding

No constants are given. Whether binding was seen depends on the method and setting. Binding seen in cells or lysates may run through a third protein. These calls come from enrichment with a bait or labelling near it, and not all partners need be listed. For part of these data: A no says only that the protein was not detected with the bait. For part of these data: Where a sequence is shown, tags or fusion partners need not be part of it.
